Results are given in words; binding and its absence hold for the method and conditions named. In cells and extracts the contact can be indirect. Some entries that bind do so weakly or less than the wild type.
Columns and labels:
[1] = biological target: T1, Annexin A1 (human (endogenous in cervical biopsy tissue)) (UniProt P04083); test: co-IP; lysates of human cervical biopsies; DNA-PKcs with annexin A1; told only in the discussion, kind of specimen not told
T1 sequence: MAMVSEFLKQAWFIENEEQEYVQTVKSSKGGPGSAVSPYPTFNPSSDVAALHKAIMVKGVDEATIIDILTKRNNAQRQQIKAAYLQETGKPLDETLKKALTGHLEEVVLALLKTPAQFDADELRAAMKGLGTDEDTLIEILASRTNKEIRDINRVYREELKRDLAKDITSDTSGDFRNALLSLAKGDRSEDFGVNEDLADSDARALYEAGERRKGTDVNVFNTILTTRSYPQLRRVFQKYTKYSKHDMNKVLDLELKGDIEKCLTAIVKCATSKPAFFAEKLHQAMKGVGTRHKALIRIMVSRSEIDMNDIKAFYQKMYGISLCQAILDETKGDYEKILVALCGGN

By UniProt entry, the sequences of proteins in these tests, tags left out.
UniProt P78527: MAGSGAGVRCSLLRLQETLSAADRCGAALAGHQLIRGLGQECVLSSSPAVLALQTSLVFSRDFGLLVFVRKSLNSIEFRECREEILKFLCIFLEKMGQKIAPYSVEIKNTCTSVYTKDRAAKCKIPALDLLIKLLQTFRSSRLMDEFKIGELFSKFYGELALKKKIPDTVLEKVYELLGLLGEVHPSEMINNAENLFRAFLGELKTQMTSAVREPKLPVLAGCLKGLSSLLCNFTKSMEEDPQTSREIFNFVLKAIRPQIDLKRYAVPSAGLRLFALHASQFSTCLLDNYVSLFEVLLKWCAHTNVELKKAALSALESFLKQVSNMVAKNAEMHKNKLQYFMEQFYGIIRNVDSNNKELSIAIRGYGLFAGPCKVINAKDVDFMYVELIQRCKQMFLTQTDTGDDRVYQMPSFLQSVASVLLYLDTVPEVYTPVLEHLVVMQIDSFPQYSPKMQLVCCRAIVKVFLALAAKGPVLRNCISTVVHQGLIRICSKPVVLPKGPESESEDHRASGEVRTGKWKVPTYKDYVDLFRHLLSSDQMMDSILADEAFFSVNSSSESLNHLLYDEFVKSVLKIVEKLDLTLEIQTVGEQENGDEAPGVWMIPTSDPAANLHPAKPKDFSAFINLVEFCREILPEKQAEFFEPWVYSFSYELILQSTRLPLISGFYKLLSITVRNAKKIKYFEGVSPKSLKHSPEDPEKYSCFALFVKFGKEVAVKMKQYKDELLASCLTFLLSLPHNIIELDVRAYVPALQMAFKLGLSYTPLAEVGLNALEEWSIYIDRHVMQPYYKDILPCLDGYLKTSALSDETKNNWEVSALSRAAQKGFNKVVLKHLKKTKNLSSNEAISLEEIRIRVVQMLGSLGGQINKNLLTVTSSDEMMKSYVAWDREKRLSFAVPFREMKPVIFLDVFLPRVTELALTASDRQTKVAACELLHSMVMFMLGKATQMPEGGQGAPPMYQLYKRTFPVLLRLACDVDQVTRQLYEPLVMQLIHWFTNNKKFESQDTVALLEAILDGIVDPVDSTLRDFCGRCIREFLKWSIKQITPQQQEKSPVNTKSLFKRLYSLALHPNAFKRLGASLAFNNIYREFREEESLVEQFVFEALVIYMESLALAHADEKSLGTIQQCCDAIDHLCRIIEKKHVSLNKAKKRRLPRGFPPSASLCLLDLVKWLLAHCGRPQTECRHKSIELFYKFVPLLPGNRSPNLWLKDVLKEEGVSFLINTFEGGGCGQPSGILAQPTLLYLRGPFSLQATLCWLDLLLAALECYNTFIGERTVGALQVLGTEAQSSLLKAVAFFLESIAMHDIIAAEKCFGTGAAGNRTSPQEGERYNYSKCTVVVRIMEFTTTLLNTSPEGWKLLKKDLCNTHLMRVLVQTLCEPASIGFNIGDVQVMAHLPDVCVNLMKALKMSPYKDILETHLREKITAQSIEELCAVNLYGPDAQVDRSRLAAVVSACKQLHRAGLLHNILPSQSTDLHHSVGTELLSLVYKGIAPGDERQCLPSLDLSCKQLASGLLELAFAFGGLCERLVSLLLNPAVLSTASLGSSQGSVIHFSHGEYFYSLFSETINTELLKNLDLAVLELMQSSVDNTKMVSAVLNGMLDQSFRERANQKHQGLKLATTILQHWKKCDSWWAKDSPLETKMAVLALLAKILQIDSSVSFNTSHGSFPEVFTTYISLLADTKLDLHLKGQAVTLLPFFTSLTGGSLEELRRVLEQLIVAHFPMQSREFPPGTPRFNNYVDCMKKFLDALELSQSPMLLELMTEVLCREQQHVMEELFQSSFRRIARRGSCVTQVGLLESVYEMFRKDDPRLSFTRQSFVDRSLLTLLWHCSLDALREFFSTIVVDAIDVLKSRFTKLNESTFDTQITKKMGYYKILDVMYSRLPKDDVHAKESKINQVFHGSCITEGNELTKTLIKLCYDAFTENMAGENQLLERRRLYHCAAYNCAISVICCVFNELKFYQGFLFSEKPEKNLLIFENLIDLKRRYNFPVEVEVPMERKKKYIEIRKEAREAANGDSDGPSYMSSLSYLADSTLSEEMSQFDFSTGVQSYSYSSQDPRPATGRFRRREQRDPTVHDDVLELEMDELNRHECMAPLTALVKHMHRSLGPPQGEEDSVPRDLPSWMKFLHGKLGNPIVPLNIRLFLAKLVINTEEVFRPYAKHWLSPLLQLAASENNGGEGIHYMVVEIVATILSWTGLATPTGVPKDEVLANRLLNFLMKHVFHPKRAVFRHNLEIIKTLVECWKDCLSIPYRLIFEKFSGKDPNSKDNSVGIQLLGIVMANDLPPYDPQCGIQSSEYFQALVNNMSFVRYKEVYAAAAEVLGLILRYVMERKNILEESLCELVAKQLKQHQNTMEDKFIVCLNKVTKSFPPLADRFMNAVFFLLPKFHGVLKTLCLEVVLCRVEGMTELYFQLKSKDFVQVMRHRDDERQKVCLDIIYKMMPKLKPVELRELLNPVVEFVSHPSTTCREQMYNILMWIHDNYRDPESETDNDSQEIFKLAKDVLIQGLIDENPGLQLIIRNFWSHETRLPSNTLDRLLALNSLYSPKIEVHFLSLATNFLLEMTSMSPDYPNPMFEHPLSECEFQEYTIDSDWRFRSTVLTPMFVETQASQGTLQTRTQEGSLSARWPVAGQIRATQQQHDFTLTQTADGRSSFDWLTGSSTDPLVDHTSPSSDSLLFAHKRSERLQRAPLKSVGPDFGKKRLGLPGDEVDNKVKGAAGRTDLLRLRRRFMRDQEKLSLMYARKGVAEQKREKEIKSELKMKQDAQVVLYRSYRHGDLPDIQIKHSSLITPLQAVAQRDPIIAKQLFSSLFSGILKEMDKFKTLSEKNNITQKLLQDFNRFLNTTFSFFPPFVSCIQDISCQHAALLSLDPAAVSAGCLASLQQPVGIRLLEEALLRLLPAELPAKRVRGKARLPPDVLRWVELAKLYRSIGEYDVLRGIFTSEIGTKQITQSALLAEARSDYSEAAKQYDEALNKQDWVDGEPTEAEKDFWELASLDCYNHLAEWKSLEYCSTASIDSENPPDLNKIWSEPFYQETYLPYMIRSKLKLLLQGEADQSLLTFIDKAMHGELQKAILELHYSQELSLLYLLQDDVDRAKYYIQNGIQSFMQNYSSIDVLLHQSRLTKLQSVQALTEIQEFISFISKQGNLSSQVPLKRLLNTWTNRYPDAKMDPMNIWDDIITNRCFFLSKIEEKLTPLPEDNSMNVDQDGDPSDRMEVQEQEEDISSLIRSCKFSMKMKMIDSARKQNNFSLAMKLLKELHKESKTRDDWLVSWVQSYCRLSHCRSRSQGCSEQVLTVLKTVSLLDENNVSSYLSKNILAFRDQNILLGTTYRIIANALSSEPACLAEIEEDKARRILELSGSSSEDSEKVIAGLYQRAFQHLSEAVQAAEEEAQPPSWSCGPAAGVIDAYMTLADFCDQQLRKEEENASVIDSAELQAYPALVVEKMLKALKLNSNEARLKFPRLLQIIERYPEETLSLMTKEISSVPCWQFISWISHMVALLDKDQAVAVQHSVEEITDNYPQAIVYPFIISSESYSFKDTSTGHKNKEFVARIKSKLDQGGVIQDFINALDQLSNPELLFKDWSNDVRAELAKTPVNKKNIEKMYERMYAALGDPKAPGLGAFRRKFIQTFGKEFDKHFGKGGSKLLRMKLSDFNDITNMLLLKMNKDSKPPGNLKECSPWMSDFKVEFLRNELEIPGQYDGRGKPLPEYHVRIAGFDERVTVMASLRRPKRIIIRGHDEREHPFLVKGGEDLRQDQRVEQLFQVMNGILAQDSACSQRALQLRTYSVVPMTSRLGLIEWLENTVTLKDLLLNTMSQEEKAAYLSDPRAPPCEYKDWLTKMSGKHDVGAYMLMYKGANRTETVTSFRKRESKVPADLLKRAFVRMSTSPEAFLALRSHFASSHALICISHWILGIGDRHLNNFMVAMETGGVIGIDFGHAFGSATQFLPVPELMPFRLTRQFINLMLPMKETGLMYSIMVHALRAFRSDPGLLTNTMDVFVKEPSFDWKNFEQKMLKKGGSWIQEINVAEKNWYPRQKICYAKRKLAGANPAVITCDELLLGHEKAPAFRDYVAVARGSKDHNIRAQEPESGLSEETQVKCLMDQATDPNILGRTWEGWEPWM
UniProt P27361: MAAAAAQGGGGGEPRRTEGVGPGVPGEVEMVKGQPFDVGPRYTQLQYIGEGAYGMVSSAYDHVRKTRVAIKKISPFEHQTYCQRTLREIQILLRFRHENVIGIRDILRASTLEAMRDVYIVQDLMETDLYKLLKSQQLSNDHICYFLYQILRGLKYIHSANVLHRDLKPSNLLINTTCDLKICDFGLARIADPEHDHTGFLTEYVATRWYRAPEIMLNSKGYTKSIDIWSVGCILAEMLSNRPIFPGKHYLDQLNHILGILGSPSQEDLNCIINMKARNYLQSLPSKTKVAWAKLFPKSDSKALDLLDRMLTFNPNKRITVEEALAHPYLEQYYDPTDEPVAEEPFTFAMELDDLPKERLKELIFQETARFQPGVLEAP
UniProt P28482: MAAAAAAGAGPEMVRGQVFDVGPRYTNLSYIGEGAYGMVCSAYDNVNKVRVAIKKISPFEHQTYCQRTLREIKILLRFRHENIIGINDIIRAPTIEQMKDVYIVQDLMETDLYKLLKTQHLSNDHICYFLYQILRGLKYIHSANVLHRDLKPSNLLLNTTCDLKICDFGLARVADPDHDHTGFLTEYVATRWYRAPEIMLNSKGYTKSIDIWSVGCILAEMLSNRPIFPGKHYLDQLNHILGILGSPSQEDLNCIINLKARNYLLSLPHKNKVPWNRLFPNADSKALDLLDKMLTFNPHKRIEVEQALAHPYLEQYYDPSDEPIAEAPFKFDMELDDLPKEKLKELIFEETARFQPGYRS

[2] = biological target: T1, Annexin A1 (human (endogenous in cervical biopsy tissue)); test: co-IP; data not shown; lysates of human cervical biopsies; annexin A1 in complex with pERK and pMEK; which antibody precipitated is not told

Row | binding [1] | binding [2] | Substance
1 | binds | – | DNA-Protein Kinase catalytic subunit (from UniProt P78527 1-4128)
2 | – | binds | phosphorylated activated ERK1 (from UniProt P27361 1-379)
3 | – | binds | phosphorylated activated ERK2 (from UniProt P28482 1-360)
4 | – | binds | phosphorylated activated MEK1 (from UniProt Q02750 1-393)

From paper PMC2483982
